Earlier results in US7432308B2, “Therapeutic compositions for the treatment of a respiratory tract disease” (Universiteit Gent, priority 2001, dated 2008).
At least one compound was matched to its structure with a doubt left.

System: epithelial cells
Settings: Farack et al. (1982); cited from earlier work

C[C@H](CCC(=O)O)[C@H]1CC[C@H]2[C@@H]3CC[C@@H]4C[C@H](O)CC[C@]4(C)[C@H]3C[C@H](O)[C@]12C [Deoxycholic acid]
concentration sufficient to stimulate K^+ secretion: 0.5 mM
